{"sequences": {"note": "Chains of the proteins cited; added tags and fusions are not shown. A line that says so, or that is headed by a name, gives the form on record, which may keep a tag or linker.", "RARα-V5/RXRγ heterodimer (Homo sapiens), one chain, as listed by the source, chain 2 of 2": "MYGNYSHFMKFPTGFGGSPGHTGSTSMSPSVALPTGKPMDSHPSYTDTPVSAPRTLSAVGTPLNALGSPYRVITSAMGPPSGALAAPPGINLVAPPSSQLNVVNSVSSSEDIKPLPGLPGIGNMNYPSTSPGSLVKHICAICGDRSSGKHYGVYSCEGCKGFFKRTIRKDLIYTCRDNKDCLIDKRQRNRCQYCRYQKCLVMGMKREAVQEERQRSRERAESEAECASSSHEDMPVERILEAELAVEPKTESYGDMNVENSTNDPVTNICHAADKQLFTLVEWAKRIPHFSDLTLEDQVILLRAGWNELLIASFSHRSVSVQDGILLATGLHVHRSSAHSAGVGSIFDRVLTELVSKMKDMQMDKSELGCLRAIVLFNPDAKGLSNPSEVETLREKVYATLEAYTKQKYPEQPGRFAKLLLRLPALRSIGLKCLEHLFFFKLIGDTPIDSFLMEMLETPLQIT", "RARα-V5/RXRγ heterodimer (Homo sapiens), one chain, as listed by the source, chain 1 of 2": "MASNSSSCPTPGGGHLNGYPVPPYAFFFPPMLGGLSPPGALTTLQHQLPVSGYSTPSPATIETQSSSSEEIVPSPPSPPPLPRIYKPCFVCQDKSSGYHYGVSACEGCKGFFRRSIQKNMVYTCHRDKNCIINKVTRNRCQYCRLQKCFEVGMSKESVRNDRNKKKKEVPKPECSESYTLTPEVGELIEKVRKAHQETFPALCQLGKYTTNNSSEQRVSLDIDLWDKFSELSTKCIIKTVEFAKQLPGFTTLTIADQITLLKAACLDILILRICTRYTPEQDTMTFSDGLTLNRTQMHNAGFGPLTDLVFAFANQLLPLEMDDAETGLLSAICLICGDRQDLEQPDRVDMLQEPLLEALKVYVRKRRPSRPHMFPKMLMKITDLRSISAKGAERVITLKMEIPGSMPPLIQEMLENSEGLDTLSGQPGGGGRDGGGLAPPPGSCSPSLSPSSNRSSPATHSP"}, "source": "patent US20020037514", "system": "RARα-V5/RXRγ heterodimer (Homo sapiens)", "assay": "binding assay", "conditions": "co-IP ternary complex; ATRA-induced SRC-1 and ACTR recruitment; indirect; protein in a lysate after overexpression; protein details: RARα C-terminal V5, CV-1 lysate", "note": "Construct, isoform or probe ends are uncertain for at least one entry. At least one result comes from cells or an extract, where the contact may be indirect."}
{"sequence": "AGCTTTCAGGTCACCAGGAGGTCAGAA (double strand) [DR-5 RARE]", "values": [{"measurement": "binding result", "value": "binds"}]}
